# Library screen at single concentrations

Chains of the proteins cited; added tags and fusions are not shown. Residues count along the entry.
UniProt Q8IDJ8, 1-583: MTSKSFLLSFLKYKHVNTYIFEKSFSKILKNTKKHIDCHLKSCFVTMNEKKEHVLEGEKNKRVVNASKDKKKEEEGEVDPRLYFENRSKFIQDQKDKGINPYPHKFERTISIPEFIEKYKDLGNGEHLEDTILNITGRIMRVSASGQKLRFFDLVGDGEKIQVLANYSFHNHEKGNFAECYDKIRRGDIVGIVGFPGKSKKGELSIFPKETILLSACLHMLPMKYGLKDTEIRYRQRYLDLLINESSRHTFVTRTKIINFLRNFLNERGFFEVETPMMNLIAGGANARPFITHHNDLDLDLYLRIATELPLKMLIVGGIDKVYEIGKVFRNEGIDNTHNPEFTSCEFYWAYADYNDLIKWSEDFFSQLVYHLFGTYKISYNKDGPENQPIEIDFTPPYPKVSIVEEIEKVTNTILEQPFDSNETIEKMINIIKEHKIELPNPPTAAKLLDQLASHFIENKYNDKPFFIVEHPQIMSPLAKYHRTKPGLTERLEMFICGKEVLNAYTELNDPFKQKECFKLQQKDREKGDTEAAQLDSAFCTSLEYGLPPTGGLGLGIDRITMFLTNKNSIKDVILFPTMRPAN

Measurements from “University of Dundee, Small-Polar-MMV Screening Library” (2021), ChEMBL document CHEMBL3988442.

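Enzyme assay of the cytosolic lysyl-tRNA synthetase in 384-well plates, read by luminescence. Target: Lysine-tRNA ligase, Plasmodium falciparum 3D7 (UniProt Q8IDJ8). Concentration: 30 µM. Direction is inferred from only a few compounds that gave an IC50; most scored high, so higher reads as stronger inhibition. Of about 69,000 compounds tested this way, about 49 (0.071%) reached 50% or more in at least one test.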

Results are given as percent effect.
How 0% and 100% were set is not recorded. Most values in the screen are low, and negative values occur.
Compounds were drawn at random from those tested, without regard to their results.

{"compound": "CCC(CC)c1nnc(NC(=O)N2CCCC(NC(C)=O)C2)s1", "stereo": "stereo not drawn", "Percent Effect": 2.877}
{"compound": "COc1c(CNC2CCN(c3ncccn3)CC2)c(C(C)C)nn1C", "Percent Effect": 4.117}
{"compound": "COCCN1Cc2ccccc2C2(CCN(C(=O)c3ccno3)CC2)C1", "Percent Effect": -0.9671}
{"compound": "CC(C)NC(=O)CC1COC2(CCN(Cc3cccs3)CC2)C1", "stereo": "stereo not drawn", "Percent Effect": 9.751}
{"compound": "CC(=O)N(C)c1nc(CN2CCCC2c2cnn(C)c2)cs1", "stereo": "stereo not drawn", "Percent Effect": -0.6577}
{"compound": "CN(C)C(CNCc1nc(-c2ccsc2)no1)c1ccsc1", "stereo": "stereo not drawn", "Percent Effect": -1.066}
{"compound": "CN1CCC(Cc2noc(CCc3nc4ccccc4nc3O)n2)CC1", "Percent Effect": 1.972}
{"compound": "O=C(CCSc1ccccc1F)N1CCN(c2cnccn2)CC1", "Percent Effect": -6.714}
{"compound": "O=C(c1cnn2cccnc12)N1CCCC(n2ccnc2)C1", "stereo": "stereo not drawn", "Percent Effect": 0.8998}
{"compound": "CCN(Cc1ccc(Cl)c(Cl)c1)C(=O)CCn1cncn1", "Percent Effect": 0.3385}
{"compound": "Cc1ccnn1-c1ccc(C(=O)N2CCCC(n3ccnc3)C2)cc1", "stereo": "stereo not drawn", "Percent Effect": 0.606}
{"compound": "CC(C)c1noc(CCCC(=O)N2CCN(Cc3cccnc3)CC2)n1", "Percent Effect": -1.12}
{"compound": "CCN1CCC(CNCc2c[nH]nc2C(C)(C)C)C1", "stereo": "stereo not drawn", "Percent Effect": 1.584}
{"compound": "O=C(CCc1cc2n(n1)CCCN(C(=O)c1ccncc1)C2)NC1CC1", "Percent Effect": 4.454}
{"compound": "CC(NC(=O)CCn1cccn1)c1cn(-c2ccccc2)nn1", "stereo": "stereo not drawn", "Percent Effect": 3.939}
{"compound": "CC(C)Oc1ncccc1CNC(=O)N1CCC(C(N)=O)C1", "stereo": "stereo not drawn", "Percent Effect": -4.16}
{"compound": "COCC1CC2(CCN(Cc3ccc(C)o3)CC2)CN1C(C)C", "stereo": "stereo not drawn", "Percent Effect": 1.226}
{"compound": "COc1ccc2[nH]cc(C(=O)N3C[C@@H](O)[C@H](N4CCCC4)C3)c2c1", "Percent Effect": -1.342}
{"compound": "COc1ccc(S(=O)(=O)NCC(c2cccn2C)N(C)C)cc1F", "stereo": "stereo not drawn", "Percent Effect": 5.132}
{"compound": "Cc1ncsc1-c1nc(CC2CCN(C)CC2)nn1Cc1ccccc1", "Percent Effect": 0.4641}
{"compound": "Cc1ccccc1CNC(=O)N1CC[C@@H]2CN(C)S(=O)(=O)[C@@H]2CC1", "Percent Effect": -3.442}
{"compound": "CC(C)C(Sc1nnnn1-c1ccccc1)C(=O)NCc1cccnc1", "stereo": "stereo not drawn", "Percent Effect": 1.82}
{"compound": "COCCn1ccc(NC(=O)CNC(=O)CC(C)(C)C)n1", "Percent Effect": 1.44}
{"compound": "Cc1nonc1OCCNC(=O)COc1ccc(F)cc1F", "Percent Effect": 5.579}
{"compound": "O=S(=O)(NCC1(O)CCOCC1)c1c(F)cccc1F", "Percent Effect": 2.094}
{"compound": "CCOCC1CN(C(=O)c2ccco2)Cc2cnn(C)c21", "stereo": "stereo not drawn", "Percent Effect": -4.482}
{"compound": "N#Cc1cccc(C(=O)N2CC(c3nc(-c4cccnc4)no3)C2)c1", "Percent Effect": 8.047}
{"compound": "CC(O)Cc1cn(CC2CCN(C3CCSCC3)CC2)nn1", "stereo": "stereo not drawn", "Percent Effect": 2.425}
{"compound": "CCCN(CCC)S(=O)(=O)N(C)Cc1ccncc1", "Percent Effect": 1.025}

The first 2 entries again:

Compound	Percent Effect
CCC(CC)c1nnc(NC(=O)N2CCCC(NC(C)=O)C2)s1 (stereo not drawn)	2.877%
COc1c(CNC2CCN(c3ncccn3)CC2)c(C(C)C)nn1C	4.117%